The other results are listed elsewhere or left out.
Tests used:
Assay in all cases: log2 fold change, soluble protein after heating vs DMSO (PISA); higher = thermal stabilisation; K562 cells, 10 uM, 30 min; active = over 0.2 and 3.5 SD of the protein, either way, in both replicates (recomputed)
[1] = compound: CC1=C(C=C(C=C1)NC(=O)C2=CC(=CC=C2)C(C)(C)C#N)NC3=CC4=C(C=C3)N=CN(C4=O)C
Procedure, shortened: (§1)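 Soluble protein was quantified by TMTpro 16plex LC-MS/MS after channel sums were equalised. It was obtained as the supernatant after 21,000xg for 90 min from pooled aliquots of K562 cells (2×10^6 cells/mL, 10 μM compound, 30 min) heated for 3 min across 48°C-58°C and extracted in PBS with 0.5% NP-40 at 4°C. Thermal stability values are relative to control samples and come from duplicates. They are given as log2 fold changes.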

Amino acid sequences for entries named in this document (tags omitted). A change or cut given only in a name is not applied to a line headed by its entry.
UniProt Q13287: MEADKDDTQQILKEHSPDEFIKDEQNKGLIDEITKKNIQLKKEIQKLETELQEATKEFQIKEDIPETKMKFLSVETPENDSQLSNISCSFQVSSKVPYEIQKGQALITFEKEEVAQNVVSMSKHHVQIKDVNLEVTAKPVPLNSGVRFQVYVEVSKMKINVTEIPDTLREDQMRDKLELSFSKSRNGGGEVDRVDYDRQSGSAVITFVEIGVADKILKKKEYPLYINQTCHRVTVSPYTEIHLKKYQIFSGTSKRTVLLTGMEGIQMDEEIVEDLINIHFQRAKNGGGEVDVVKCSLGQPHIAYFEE
UniProt P15531, whole entry, looked up: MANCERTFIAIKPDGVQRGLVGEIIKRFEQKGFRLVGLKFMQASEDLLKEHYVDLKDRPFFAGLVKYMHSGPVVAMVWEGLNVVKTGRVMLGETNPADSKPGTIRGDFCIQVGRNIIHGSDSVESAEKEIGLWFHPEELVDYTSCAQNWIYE
UniProt Q9Y314: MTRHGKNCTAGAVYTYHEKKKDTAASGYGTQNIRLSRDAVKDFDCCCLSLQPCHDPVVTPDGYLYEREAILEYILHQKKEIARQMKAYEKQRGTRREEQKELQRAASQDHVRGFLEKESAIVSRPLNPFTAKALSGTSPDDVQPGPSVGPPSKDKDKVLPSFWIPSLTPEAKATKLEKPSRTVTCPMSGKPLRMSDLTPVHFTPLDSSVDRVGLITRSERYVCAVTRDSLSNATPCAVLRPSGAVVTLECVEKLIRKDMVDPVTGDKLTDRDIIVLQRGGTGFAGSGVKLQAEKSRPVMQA
UniProt P06748, whole entry, looked up: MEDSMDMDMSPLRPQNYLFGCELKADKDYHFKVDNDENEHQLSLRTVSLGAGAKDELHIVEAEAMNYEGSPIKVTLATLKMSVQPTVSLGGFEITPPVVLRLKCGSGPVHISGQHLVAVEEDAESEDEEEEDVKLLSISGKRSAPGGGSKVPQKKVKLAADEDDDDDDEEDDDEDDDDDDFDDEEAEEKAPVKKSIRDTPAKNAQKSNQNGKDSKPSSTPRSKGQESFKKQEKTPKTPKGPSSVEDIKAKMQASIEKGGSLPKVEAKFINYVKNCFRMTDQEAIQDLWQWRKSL
UniProt Q15233: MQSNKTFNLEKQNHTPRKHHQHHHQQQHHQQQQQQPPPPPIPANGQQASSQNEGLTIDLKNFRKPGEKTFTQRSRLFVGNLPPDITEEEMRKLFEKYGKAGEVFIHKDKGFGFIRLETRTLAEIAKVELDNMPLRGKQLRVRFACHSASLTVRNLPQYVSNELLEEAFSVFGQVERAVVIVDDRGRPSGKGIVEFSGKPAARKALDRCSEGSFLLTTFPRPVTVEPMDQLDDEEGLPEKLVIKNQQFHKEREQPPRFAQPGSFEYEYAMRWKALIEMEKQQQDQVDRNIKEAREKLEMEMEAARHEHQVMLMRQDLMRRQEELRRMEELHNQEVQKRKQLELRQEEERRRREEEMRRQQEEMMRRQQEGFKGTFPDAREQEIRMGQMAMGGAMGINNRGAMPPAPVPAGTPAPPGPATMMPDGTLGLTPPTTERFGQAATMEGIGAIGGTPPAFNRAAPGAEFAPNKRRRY
UniProt P46459: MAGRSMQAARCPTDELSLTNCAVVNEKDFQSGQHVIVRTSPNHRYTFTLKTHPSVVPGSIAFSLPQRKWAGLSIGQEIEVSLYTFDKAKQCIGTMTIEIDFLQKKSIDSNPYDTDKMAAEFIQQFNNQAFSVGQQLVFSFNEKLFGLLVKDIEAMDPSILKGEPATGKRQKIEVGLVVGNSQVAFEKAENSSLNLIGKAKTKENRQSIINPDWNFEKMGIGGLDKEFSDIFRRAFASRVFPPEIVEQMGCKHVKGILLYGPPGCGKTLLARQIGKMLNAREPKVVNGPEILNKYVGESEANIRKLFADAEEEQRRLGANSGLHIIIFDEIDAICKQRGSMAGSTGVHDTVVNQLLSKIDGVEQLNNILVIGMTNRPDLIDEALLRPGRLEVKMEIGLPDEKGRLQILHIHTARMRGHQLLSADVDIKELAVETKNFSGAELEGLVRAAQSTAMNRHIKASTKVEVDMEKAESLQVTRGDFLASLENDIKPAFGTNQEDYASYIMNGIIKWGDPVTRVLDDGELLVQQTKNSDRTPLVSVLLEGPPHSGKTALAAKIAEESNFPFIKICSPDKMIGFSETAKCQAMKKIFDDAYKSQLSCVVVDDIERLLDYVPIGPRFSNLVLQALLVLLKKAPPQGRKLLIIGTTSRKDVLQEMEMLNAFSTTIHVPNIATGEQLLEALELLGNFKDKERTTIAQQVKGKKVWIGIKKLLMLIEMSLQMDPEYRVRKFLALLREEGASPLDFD
UniProt O00221: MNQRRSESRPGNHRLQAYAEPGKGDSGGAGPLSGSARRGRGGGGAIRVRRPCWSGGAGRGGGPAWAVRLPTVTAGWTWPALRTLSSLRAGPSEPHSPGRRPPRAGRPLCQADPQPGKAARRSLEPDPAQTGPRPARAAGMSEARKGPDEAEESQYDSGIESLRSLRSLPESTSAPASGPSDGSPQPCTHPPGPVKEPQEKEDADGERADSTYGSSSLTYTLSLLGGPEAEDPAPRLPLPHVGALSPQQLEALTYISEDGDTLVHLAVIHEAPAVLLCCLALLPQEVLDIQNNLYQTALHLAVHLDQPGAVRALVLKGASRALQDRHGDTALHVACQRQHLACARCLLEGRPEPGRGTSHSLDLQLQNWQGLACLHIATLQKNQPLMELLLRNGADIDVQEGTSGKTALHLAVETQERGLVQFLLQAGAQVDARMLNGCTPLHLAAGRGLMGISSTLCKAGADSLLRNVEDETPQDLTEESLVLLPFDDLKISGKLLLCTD
UniProt Q9NVX2: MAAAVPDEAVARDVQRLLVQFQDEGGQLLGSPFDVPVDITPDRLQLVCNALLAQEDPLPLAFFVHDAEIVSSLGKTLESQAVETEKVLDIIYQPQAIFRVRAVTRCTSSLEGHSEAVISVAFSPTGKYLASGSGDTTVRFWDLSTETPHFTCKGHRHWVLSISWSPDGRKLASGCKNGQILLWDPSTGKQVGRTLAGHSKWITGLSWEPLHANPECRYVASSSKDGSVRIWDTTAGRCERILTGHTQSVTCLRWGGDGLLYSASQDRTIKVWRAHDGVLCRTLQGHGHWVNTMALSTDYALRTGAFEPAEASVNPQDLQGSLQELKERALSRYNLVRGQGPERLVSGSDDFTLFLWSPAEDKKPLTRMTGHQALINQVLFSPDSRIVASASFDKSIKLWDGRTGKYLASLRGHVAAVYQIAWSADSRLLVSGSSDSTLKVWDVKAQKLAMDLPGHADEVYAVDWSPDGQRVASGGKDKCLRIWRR
UniProt Q9GZT8: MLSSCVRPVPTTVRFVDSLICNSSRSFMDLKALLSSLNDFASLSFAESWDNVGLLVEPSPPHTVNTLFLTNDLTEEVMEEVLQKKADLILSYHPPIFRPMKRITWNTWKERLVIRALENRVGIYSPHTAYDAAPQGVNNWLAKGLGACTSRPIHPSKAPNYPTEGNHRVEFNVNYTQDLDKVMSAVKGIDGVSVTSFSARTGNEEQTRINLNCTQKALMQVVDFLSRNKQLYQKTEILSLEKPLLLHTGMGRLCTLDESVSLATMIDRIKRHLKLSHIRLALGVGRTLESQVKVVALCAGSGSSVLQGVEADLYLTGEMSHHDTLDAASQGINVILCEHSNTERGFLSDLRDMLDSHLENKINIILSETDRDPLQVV
UniProt Q5JPE7: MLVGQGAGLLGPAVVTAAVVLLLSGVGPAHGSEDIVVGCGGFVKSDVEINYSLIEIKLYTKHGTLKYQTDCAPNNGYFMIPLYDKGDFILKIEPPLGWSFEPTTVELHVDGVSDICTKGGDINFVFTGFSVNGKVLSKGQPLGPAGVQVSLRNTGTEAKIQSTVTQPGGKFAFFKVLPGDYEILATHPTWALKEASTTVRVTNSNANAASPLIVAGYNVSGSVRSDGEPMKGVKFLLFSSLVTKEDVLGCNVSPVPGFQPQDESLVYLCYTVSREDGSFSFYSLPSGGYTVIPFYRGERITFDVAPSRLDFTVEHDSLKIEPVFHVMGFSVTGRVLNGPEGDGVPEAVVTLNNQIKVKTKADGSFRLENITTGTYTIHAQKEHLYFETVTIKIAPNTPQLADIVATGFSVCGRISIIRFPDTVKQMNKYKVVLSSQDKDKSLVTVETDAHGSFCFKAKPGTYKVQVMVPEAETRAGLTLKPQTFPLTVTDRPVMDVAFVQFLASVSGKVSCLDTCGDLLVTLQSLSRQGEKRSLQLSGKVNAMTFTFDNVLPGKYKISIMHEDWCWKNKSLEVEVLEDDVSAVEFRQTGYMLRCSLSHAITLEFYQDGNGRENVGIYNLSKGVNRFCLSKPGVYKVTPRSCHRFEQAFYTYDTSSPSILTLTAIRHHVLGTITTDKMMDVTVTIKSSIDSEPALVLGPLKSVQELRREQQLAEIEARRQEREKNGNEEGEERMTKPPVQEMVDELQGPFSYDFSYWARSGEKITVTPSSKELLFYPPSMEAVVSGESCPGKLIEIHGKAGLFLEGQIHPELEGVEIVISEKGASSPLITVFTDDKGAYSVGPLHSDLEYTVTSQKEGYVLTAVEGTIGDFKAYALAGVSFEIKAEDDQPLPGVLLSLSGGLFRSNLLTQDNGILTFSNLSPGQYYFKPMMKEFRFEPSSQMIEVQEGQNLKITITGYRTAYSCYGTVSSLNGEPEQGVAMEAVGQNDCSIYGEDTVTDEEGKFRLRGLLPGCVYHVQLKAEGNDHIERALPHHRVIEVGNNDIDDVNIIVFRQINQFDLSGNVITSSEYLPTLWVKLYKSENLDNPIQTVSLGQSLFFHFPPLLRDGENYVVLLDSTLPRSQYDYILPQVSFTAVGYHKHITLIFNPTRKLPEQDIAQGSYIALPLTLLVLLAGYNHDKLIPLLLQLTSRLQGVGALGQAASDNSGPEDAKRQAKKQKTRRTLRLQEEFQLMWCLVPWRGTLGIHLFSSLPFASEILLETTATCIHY
UniProt Q6ZNB6: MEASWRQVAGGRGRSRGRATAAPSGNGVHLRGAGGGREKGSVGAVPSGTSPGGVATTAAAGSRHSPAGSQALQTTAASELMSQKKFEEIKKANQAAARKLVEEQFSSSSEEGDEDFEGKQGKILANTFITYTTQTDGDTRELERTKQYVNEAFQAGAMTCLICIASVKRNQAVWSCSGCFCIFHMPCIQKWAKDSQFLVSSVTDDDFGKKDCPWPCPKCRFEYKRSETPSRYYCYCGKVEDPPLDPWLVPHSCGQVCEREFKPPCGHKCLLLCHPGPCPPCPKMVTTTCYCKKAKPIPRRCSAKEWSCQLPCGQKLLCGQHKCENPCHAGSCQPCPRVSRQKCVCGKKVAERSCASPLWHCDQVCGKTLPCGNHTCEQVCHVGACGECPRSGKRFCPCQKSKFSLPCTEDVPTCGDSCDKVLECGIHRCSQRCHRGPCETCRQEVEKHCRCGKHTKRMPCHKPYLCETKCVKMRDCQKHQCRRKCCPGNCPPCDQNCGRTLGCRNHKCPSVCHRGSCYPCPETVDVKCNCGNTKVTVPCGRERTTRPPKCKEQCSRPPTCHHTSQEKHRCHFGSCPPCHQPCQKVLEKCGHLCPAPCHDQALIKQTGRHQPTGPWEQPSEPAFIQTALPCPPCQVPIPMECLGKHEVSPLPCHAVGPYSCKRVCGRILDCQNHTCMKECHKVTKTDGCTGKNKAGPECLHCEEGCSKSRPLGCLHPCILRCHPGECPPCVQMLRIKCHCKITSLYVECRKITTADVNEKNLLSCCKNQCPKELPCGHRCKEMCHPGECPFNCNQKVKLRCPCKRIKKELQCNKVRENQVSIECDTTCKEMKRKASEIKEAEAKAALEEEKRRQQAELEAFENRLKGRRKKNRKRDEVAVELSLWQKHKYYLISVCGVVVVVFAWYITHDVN
UniProt Q9H3P2, whole entry, looked up: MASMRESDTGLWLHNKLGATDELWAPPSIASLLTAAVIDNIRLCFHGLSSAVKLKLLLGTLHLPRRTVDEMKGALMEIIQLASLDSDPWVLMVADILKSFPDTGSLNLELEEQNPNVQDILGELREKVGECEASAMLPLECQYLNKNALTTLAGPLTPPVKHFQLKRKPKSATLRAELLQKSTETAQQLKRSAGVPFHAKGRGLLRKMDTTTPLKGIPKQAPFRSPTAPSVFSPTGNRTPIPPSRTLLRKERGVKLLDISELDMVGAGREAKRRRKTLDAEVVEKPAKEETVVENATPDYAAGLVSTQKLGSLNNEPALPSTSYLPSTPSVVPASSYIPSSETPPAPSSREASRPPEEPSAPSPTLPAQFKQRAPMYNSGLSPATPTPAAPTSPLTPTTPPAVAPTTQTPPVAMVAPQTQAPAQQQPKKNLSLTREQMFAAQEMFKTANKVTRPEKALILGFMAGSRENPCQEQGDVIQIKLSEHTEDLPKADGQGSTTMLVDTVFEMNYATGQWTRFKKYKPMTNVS
UniProt O60936: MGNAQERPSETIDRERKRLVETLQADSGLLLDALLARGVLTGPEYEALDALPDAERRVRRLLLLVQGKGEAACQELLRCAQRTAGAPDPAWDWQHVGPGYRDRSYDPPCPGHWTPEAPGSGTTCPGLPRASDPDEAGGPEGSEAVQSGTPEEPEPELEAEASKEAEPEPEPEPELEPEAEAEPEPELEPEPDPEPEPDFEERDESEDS

[2] = compound: CC1=C(C=C(C=C1)NC(=O)C2=CC(=CC=C2)N(C)C)NC(=O)C3=CC=C(C=C3)O
Procedure, shortened: as §1

[3] = compound: CC1=CC=C(C=C1)SC2=C3C=C(SC3=CN=C2)C(=O)N
Procedure, shortened: as §1

[4] = compound: CC1=NC(=CC=C1)C2=C(N=C(N2)C(C)(C)C)C3=CC4=NC=CN=C4C=C3
Procedure, shortened: as §1

Nexturastat A = compound: CCCCN(Cc1ccc(C(=O)NO)cc1)C(=O)Nc1ccccc1 [Nexturastat A]
Procedure, shortened: as §1

vemurafenib = compound: CCCS(=O)(=O)Nc1ccc(F)c(C(=O)c2c[nH]c3ncc(-c4ccc(Cl)cc4)cc23)c1F [vemurafenib]
Procedure, shortened: as §1

[5] = compound: CCCS(=O)(=O)Nc1ccc(F)c(C(=O)c2c[nH]c3ncc(Cl)cc23)c1F
Procedure, shortened: as §1

[6] = compound: CCCc1cc(C)[nH]c(=O)c1CNC(=O)c1cc(-c2ccnc(N3CCN(C)CC3)c2)cc2c1cnn2C(C)C
Procedure, shortened: as §1

givinostat = compound: CCN(CC)Cc1ccc2cc(COC(=O)Nc3ccc(C(=O)NO)cc3)ccc2c1 [givinostat]
Procedure, shortened: as §1

barasertib = compound: CCN(CCCOc1ccc2c(Nc3cc(CC(=O)Nc4cccc(F)c4)[nH]n3)ncnc2c1)CCOP(=O)(O)O [barasertib]
Procedure, shortened: as §1

Measured: log2 fold change

NFKBIB (UniProt Q15653)
inactive: [1] 0.027 | [2] -0.061 | [3] 0.021 | [4] 0 | Nexturastat A 0.031 | vemurafenib 0.013 | [5] 0.046 | [6] 0.031 | givinostat -0.025 | barasertib -0.011

NME3 (UniProt Q13232)
inactive: [1] -0.051 | [2] 0.026 | [3] 0.014 | [4] 0.012 | Nexturastat A -0.058 | vemurafenib -0.014 | [5] -0.025 | [6] -0.019 | givinostat -0.011 | barasertib -0.031

NMI (UniProt Q13287)
inactive: [1] -0.017 | [2] 0.014 | [3] 0.012 | [4] 0.011 | Nexturastat A -0.038 | vemurafenib -0.035 | [5] 0.008 | [6] -0.046 | givinostat -0.02 | barasertib 0.013

NME1 isoform 2 (UniProt P15531)
inactive: [1] -0.054 | [2] 0.047 | [3] 0.029 | [4] -0.006 | Nexturastat A -0.067 | vemurafenib -0.003 | [5] -0.045 | [6] -0.092 | givinostat -0.07 | barasertib -0.108

NSMAF (UniProt Q92636)
inactive: [1] -0.004 | [2] 0.049 | [3] -0.006 | [4] -0.007 | Nexturastat A -0.027 | vemurafenib -0.104 | [5] 0.021 | [6] 0.018 | givinostat -0.025 | barasertib -0.041

NR2F2 (UniProt P24468)
inactive: [1] -0.017 | [2] -0.025 | [3] -0.003 | [4] 0.065 | Nexturastat A -0.083 | vemurafenib -0.031 | [5] -0.019 | [6] 0 | givinostat -0.018 | barasertib 0.105

NOL12 (UniProt Q9UGY1)
inactive: [1] -0.025 | [2] -0.019 | [3] -0.023 | [4] -0.193 | Nexturastat A 0.348 | vemurafenib -0.087 | [5] -0.064 | [6] 0.149 | givinostat -0.031 | barasertib -0.134

NRDC isoform 2 (UniProt O43847)
inactive: [1] 0.001 | [2] -0.053 | [3] 0.01 | [4] 0.03 | Nexturastat A 0 | vemurafenib 0.047 | [5] 0.051 | [6] 0.021 | givinostat 0.017 | barasertib 0.037

NOSIP (UniProt Q9Y314)
inactive: [1] 0.02 | [2] -0.2 | [3] 0.032 | [4] 0.012 | Nexturastat A 0.149 | vemurafenib 0.247 | [5] 0.168 | [6] 0.047 | givinostat 0.14 | barasertib 0.197

NPM1 (UniProt P06748)
inactive: [1] 0.055 | [2] -0.011 | [3] -0.099 | [4] -0.066 | Nexturastat A 0.17 | vemurafenib -0.058 | [5] -0.042 | [6] 0.145 | givinostat 0.077 | barasertib -0.156

NPC1 (UniProt O15118)
inactive: [1] -0.018 | [2] 0.01 | [3] 0.006 | [4] 0.066 | Nexturastat A -0.041 | vemurafenib 0.007 | [5] -0.019 | [6] -0.028 | givinostat -0.051 | barasertib 0.02

NLN (UniProt Q9BYT8)
inactive: [1] -0.03 | [2] 0.005 | [3] -0.002 | [4] 0.016 | Nexturastat A 0.029 | vemurafenib -0.036 | [5] -0.009 | [6] -0.024 | givinostat 0.154 | barasertib -0.003

NME6 (UniProt O75414)
inactive: [1] 0.04 | [2] -0.07 | [3] 0.023 | [4] 0.039 | Nexturastat A 0.053 | vemurafenib 0.116 | [5] -0.057 | [6] -0.068 | givinostat -0.014 | barasertib 0.015

NONO (UniProt Q15233)
inactive: [1] 0.026 | [2] -0.01 | [3] -0.056 | [4] -0.05 | Nexturastat A 0.347 | vemurafenib 0.057 | [5] 0.073 | [6] 0.085 | givinostat 0.236 | barasertib -0.099

NFE2 (UniProt Q16621)
inactive: [1] -0.09 | [2] 0.064 | [3] 0.017 | [4] 0.034 | Nexturastat A 0.044 | vemurafenib -0.087 | [5] 0.043 | [6] -0.009 | givinostat 0.087 | barasertib -0.003

8 consecutive records out of the list so far, for reference:
NR2F2 (UniProt P24468)
inactive: [1] -0.017 | [2] -0.025 | [3] -0.003 | [4] 0.065 | Nexturastat A -0.083 | vemurafenib -0.031 | [5] -0.019 | [6] 0 | givinostat -0.018 | barasertib 0.105

NOL12 (UniProt Q9UGY1)
inactive: [1] -0.025 | [2] -0.019 | [3] -0.023 | [4] -0.193 | Nexturastat A 0.348 | vemurafenib -0.087 | [5] -0.064 | [6] 0.149 | givinostat -0.031 | barasertib -0.134

NRDC isoform 2 (UniProt O43847)
inactive: [1] 0.001 | [2] -0.053 | [3] 0.01 | [4] 0.03 | Nexturastat A 0 | vemurafenib 0.047 | [5] 0.051 | [6] 0.021 | givinostat 0.017 | barasertib 0.037

NOSIP (UniProt Q9Y314)
inactive: [1] 0.02 | [2] -0.2 | [3] 0.032 | [4] 0.012 | Nexturastat A 0.149 | vemurafenib 0.247 | [5] 0.168 | [6] 0.047 | givinostat 0.14 | barasertib 0.197

NPM1 (UniProt P06748)
inactive: [1] 0.055 | [2] -0.011 | [3] -0.099 | [4] -0.066 | Nexturastat A 0.17 | vemurafenib -0.058 | [5] -0.042 | [6] 0.145 | givinostat 0.077 | barasertib -0.156

NPC1 (UniProt O15118)
inactive: [1] -0.018 | [2] 0.01 | [3] 0.006 | [4] 0.066 | Nexturastat A -0.041 | vemurafenib 0.007 | [5] -0.019 | [6] -0.028 | givinostat -0.051 | barasertib 0.02

NLN (UniProt Q9BYT8)
inactive: [1] -0.03 | [2] 0.005 | [3] -0.002 | [4] 0.016 | Nexturastat A 0.029 | vemurafenib -0.036 | [5] -0.009 | [6] -0.024 | givinostat 0.154 | barasertib -0.003

NME6 (UniProt O75414)
inactive: [1] 0.04 | [2] -0.07 | [3] 0.023 | [4] 0.039 | Nexturastat A 0.053 | vemurafenib 0.116 | [5] -0.057 | [6] -0.068 | givinostat -0.014 | barasertib 0.015

(list continues)

NSF (UniProt P46459)
inactive: [1] -0.002 | [2] -0.026 | [3] 0.006 | [4] 0.039 | Nexturastat A -0.054 | vemurafenib 0.038 | [5] 0.017 | [6] 0.016 | givinostat 0.014 | barasertib 0.029

NEMP1 (UniProt O14524)
inactive: [1] -0.051 | [2] 0.037 | [3] 0.031 | [4] -0.022 | Nexturastat A -0.057 | vemurafenib -0.084 | [5] -0.041 | [6] -0.001 | givinostat -0.061 | barasertib -0.034

NRIP3 (UniProt Q9NQ35)
inactive: [1] -0.073

NME2P1 (UniProt O60361)
inactive: [1] 0.06 | [2] 0.017 | [3] 0.065 | [4] 0.004 | Nexturastat A -0.164 | vemurafenib 0.038 | [5] -0.043 | [6] -0.102 | givinostat 0.09 | barasertib 0.12

NFKBIE (UniProt O00221)
inactive: [1] 0.095 | [2] 0.069 | [3] 0.044 | [4] -0.021 | Nexturastat A 0 | vemurafenib 0.052 | [5] -0.137 | [6] 0.104 | givinostat -0.009

NHLRC2 (UniProt Q8NBF2)
inactive: [1] -0.06 | [2] 0.225 | [3] -0.014 | [4] -0.014 | Nexturastat A -0.055 | vemurafenib -0.053 | [5] -0.048 | [6] -0.076 | givinostat -0.006 | barasertib -0.004

NLE1 (UniProt Q9NVX2)
inactive: [1] 0.014 | [2] -0.019 | [3] 0.039 | [4] 0.014 | Nexturastat A -0.102 | vemurafenib 0.018 | [5] 0.022 | [6] -0.028 | givinostat -0.038 | barasertib -0.001

NHP2 (UniProt Q9NX24)
inactive: [1] -0.023 | [2] -0.03 | [3] -0.042 | [4] -0.052 | Nexturastat A 0.131 | vemurafenib -0.082 | [5] -0.056 | [6] -0.063 | givinostat -0.007 | barasertib -0.086

NIF3L1 (UniProt Q9GZT8)
inactive: [1] -0.066 | [2] 0.003 | [3] -0.029 | [4] -0.015 | Nexturastat A 0.031 | vemurafenib 0.003 | [5] -0.044 | [6] -0.019 | givinostat -0.02 | barasertib 0.018

NOMO2 (UniProt Q5JPE7)
inactive: [1] 0.019 | [2] -0.014 | [3] 0.006 | [4] 0.002 | Nexturastat A -0.015 | vemurafenib 0.003 | [5] 0.014 | [6] 0.025 | givinostat 0.025 | barasertib -0.004

NFXL1 (UniProt Q6ZNB6)
inactive: [1] -0.023 | [2] -0.034 | [3] 0.01 | [4] 0 | Nexturastat A -0.019 | vemurafenib -0.012 | [5] -0.01 | [6] -0.064 | givinostat -0.042 | barasertib 0.037

NELFA (UniProt Q9H3P2)
inactive: [1] -0.02 | [2] -0.124 | [3] 0.011 | [4] 0.092 | Nexturastat A -0.104 | vemurafenib 0.06 | [5] 0.097 | [6] 0.024 | givinostat 0.079 | barasertib 0.212

NOL3 isoform 3 (UniProt O60936)
inactive: [1] 0.134 | [2] -0.081 | [3] -0.019 | [4] -0.155 | Nexturastat A 0.227 | vemurafenib 0.001 | [5] -0.064 | [6] -0.013

From the supplement of paper PMC10849652
